# Source: PubChem BioAssay AID200 (DTP/NCI, 2004)
# The list shows only some results of the screen, not a fair sample: it gathers tests that were run many times, whatever their T/C, doses with no T/C, and many T/C values between a quarter and a half above the control. Further doses and runs are listed elsewhere. T/C is the treated group as % of the vehicle group. Some entries give survivors of the animals treated and no T/C: the source holds a T/C of zero for them, seemingly a mark for toxic or unscored doses. Some survivor counts are full or nearly so, which does not show that the dose was tolerated: the source hardly ever lists a survival T/C far under the control, and the zero likely stands for such cases as well. Counts of survivors are from the toxicity check (mostly the fifth day) where no day follows; animals may have died later. Schedule codes are those of the source, read here as Q, the interval in days (D) or hours (H), X, the number of doses. Some entries were tested several times; the values are given in rising order. Where survival is the endpoint, the PubChem record calls one and a half times the control and up active, and a quarter to a half above the control has no call in these data; cut-offs in other NCI protocols can differ. Brackets with × count equal records among those shown. Some T/C values carry the count of animals alive at the toxicity check (mostly the fifth day); without a count, all were alive then.
# System: B6C3F1 mice, B16 melanoma ip, median survival T/C
# Experiment: NCI In Vivo Anticancer Drug Screen. Data for tumor model B16 Melanoma (intraperitoneal) in B6C3F1 mice
# Conditions: T/C endpoint: median survival time, schedule: Q01DX009 (ip), higher T/C = longer survival
# How it was run: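 Tumor-bearing mice received test compound; a separate group got vehicle only. Survival was then compared, with results reported as treated over control.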
# [1] = dose: 25.0 mg/kg/injection, vehicle: saline with Tween-80
# [2] = dose: 50.0 mg/kg/injection, vehicle: saline with Tween-80
# [3] = dose: 100.0 mg/kg/injection, vehicle: saline with Tween-80
# [4] = dose: 200.0 mg/kg/injection, vehicle: saline with Tween-80
# [5] = dose: 400.0 mg/kg/injection, vehicle: saline with Tween-80
# [6] = dose: 100.0 mg/kg/injection, vehicle: water
smiles,measurement,setting,value
O=C1C2CC(Cl)C(SSC3CC4C(=O)N(SC(Cl)(Cl)C(Cl)Cl)C(=O)C4CC3Cl)CC2C(=O)N1SC(Cl)(Cl)C(Cl)Cl (stereo not drawn),survivor count,"dose: 12.5 mg/kg/injection, vehicle: saline with Tween-80",10 of 10
same,survivor count,[1],10 of 10
same,survivor count,[2],10 of 10
same,survivor count,[3],8 of 10
same,survivor count,[4],0 of 10 and 9 of 10
same,survivor count,[5],6 of 10
CC1CCC(n2cnc3c(Cl)ncnc32)O1 (stereo not drawn),survivor count,"dose: 400.0 mg/kg/injection, vehicle: Klucel (hydroxypropylcellulose) (HPC)",6 of 10 and 10 of 10
NC(=O)c1cc(Cl)nc2nc(Cl)nc(N)c12,survivor count,[1],10 of 10
same,survivor count,[2],10 of 10
same,survivor count,[3],10 of 10
same,survivor count,[4],9 of 9
same,survivor count,[5],10 of 10
N#CC(=C1SCS1)[N+](=O)[O-],survivor count,"dose: 12000.0 micrograms/kg/injection, vehicle: saline with Tween-80",8 of 10
O=C1CCCCC1C(=O)C(F)(F)F (stereo not drawn),survivor count,"dose: 36.0 mg/kg/injection, vehicle: saline + Tween-80 + alcohol",10 of 10
same,survivor count,"dose: 100.0 mg/kg/injection, vehicle: saline + Tween-80 + alcohol",4 of 10
same,survivor count,"dose: 200.0 mg/kg/injection, vehicle: saline + Tween-80 + alcohol",0 of 10
COC(=O)NC1C(C)OC(OC2C/C=C(/C)C3C=CC4C(OC5CC(OC6CC(OC7CC(O)C(O)C(C)O7)C(OC7CC(O)C(OC)C(C)O7)C(C)O6)C(O)C(C)O5)C(C)CC(C)C4C3(C)/C(O)=C3\C(=O)OC4(CC(C)C(CO)=CC4/C=C\2C)C3=O)CC1(C)[N+](=O)[O-] (stereo not drawn),T/C,"dose: 12.5 mg/kg/injection, vehicle: water",131 % of control
same,T/C,"dose: 25.0 mg/kg/injection, vehicle: water",143 % of control (2×)
same,T/C,"dose: 50.0 mg/kg/injection, vehicle: water","125, 128, 143 % of control"
same,T/C,[6],132 [9 of 10 alive] and 144 % of control
same,survivor count,[6],8 of 9
same,survivor count,"dose: 200.0 mg/kg/injection, vehicle: water",0 of 10
NCC1CCC(C(=O)O)CC1 (stereo not drawn),survivor count,[5],10 of 10
O=C1c2ccccc2C(=O)c2c(NCCNCCO)ccc(O)c21,T/C,"dose: 5.0 mg/kg/injection, vehicle: suspension in saline",130 % of control
same,T/C,"dose: 10.0 mg/kg/injection, vehicle: suspension in saline",129 % of control
N=c1ccn2c(n1)OC1C(O)C(CO)OC12 (stereo not drawn),T/C,"dose: 600.0 mg/kg/injection, vehicle: saline",127 and 134 % of control
same,survivor count,"dose: 1200.0 mg/kg/injection, vehicle: saline",10 of 10
N#Cc1ccc(NC(=O)Nc2nncs2)cc1,T/C,[2],125 % of control
same,T/C,"dose: 100.0 mg/kg/injection, vehicle: saline with Tween-80, evaluated on day 45",143 % of control
same,T/C,"dose: 100.0 mg/kg/injection, vehicle: saline with Tween-80, evaluated on day 60",127 % of control
same,survivor count,[4],6 of 10 and 8 of 10
same,survivor count,[5],0 of 10 and 3 of 10
C=C(C)C(=O)N(C)C(C)C(=O)OC1CC(=O)N(C)c2cc(cc(OC)c2Cl)C(OC)C(C)=C/C=C/C(OC)C2(O)CC(OC(=O)N2)C(C)C2OC12C (stereo not drawn),T/C,"dose: 4.0 micrograms/kg/injection, vehicle: saline",145 % of control
